For at least one compound, name, drawing or mass did not settle the structure.
Assay: Measurement of glass transition temperature by differential scanning calorimeter
Type: physicochemical
Conditions: DSC, melted compound cooled and heated again, 10.0° C./min.
Method: Each compound was heated to a temperature 20° C. higher than the melting point of the compound in crystal form using a differential scanning calorimeter, and the melted compound was cooled and then heated again to measure the glass transition point. The measurement conditions were 40° C. as the temperature at which to start measurement, the melting point+20° C. as the temperature at which to end measurement, and 10.0° C./min. as the rate of heating.

CC(c1ccc(O)cc1)(c1ccc(O)cc1)c1ccc(-c2ccc(O)cc2)cc1 [Example 1, 1-[4-(4-hydroxyphenyl)phenyl]-1,1-bis(4-hydroxyphenyl)ethane]
Glass transition temperature: 98 °C

Reference: patent publication US8816135B2, “Trisphenol compound” (Honshu Chemical Industry Co., Ltd., priority 2009, dated 2014)
